Reference: PubChem BioAssay AID493014 (National Center for Advancing Translational Sciences (NCATS), 2011)
The list shows a part of the results. Shown are side measurements of this screen, not its main read-out; they come without a call. The list favours compounds with an active or inconclusive main result. Potencies come from curve fits of mixed quality, noted in brackets.

Assay: qHTS Assay to Find Inhibitors of Chronic Active B-Cell Receptor Signaling
Conditions: ABC-DLBCL IkBa-CBG/CBR reporter, luminescence ratio (green luciferase fused to IkBa over red control in TMD8 lymphoma cells), 4 h
In short: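 TMD8 ABC-DLBCL cells carrying doxycycline-inducible green luciferase fused to IkappaBalpha plus unfused red luciferase were exposed to compounds (up to 46 uM) for 4 hrs at 37C. Activity came from the overlap-corrected green/red luminescence ratio.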

[1] = measured here: CBR red luminescence, cell number
[2] = measured here: IkBa-CBG green luminescence

| Structure (SMILES) | AC50 [1] | AC50 [2] |
| --- | --- | --- |
| CC1CCCCN1CC(=O)c1ccc2cc[nH]c2c1 (configuration not stated) | 2.06 µM [falling, single point] |  |
| CC(=O)O[C@H]1C(=O)[C@@]2(C)C([C@H](OC(=O)c3ccccc3)[C@]3(O)C[C@H](O)C(C)=C1C3(C)C)[C@]1(OC(C)=O)CO[C@@H]1C[C@H]2O (some centres not stated) | 3.16 µM [falling, partial curve, poor fit] |  |
| CCC(=NCc1ccco1)c1c(O)n(C)c(=O)n(C)c1=O | 2.82 µM [falling, full curve] |  |
| COc1ccc(/C=N/N=C(/N)N[N+](=O)[O-])c(OC)c1 | 35.5 µM [falling, single point] |  |
| N#CC1=C(N)Oc2c(c(=O)oc3ccccc23)C1c1ccccc1OC(=O)c1cccs1 (configuration not stated) | 0.517 µM [falling, full curve] |  |
| COc1ccc(CCNCc2ccccc2)cc1 | 0.708 µM [falling, full curve, poor fit] |  |
| COC(=O)C1=C(c2ccc(OC)c(OC)c2)C[C@@H]2CC[C@H]1N2C(=O)NC1Cc2ccccc2C1 | 2.91 µM [rising, partial curve, poor fit] |  |
| C[C@@H]1O[C@@H](O[C@@H]2C=C3CC[C@@H]4C(CC[C@]5(C)[C@@H](c6ccc(=O)oc6)CC[C@]45O)[C@@]3(C)CC2)[C@H](O)[C@H](O)[C@H]1O (some centres not stated) | 14.6 µM [falling, partial curve, poor fit] |  |
| O=C(NCCN1CCOCC1)c1ccc(Cl)nc1 | 3.98 µM [rising, full curve, poor fit] |  |
| Cc1ccsc1/C=N/N1CCN(Cc2ccccc2)CC1 | 3.55 µM [rising, single point] |  |
| CC(C)c1oc(=O)cc2c1[C@@H](O)[C@H]1OC(=O)[C@@]3(C)CC[C@@H](O)[C@@]2(C)C13 (some centres not stated) | 29.1 µM [falling, single point] | 2.91 µM [falling, partial curve, poor fit] |
| Cc1cccc(-n2c(O)c(/C=N/Nc3nc4c(c(=O)n(C)c(=O)n4C)n3C)c(=O)[nH]c2=S)c1 | 29.1 µM [falling, single point] |  |
| COC(=O)C1=C(c2cccc(OCc3ccccc3)c2)C[C@@H]2CC[C@H]1N2C(=O)NCCOc1ccc(OC)cc1 | 16.4 µM [falling, partial curve, poor fit] |  |
| O=c1c2ccccc2nc(/C=C/c2ccc(F)cc2)n1-c1ccccn1 | 5.62 µM [rising, single point] |  |
| O=c1c2ccccc2nc(-c2ccccc2)n1-c1ccncc1 | 29.1 µM [falling, single point] |  |
| COC(=O)CSc1nc2cc(OC)ccc2cc1C#N | 0.631 µM [rising, full curve] |  |
| CCC(=Nc1ccccc1NC(C)=O)c1c(O)n(C)c(=O)n(C)c1=O |  | 4.11 µM [rising, partial curve, poor fit] |
| CC(C)N1C(=S)SC(C)(C)C1n1oc(=O)n(-c2ccc(Cl)c(Cl)c2)c1=O (configuration not stated) | 23.1 µM [falling, partial curve, poor fit] |  |
| CN(C)C(=O)O/N=C(\N)COc1ccc(C(C)(C)C)cc1 | 31.6 µM [rising, single point] |  |
| O=C1NC(=O)N(Cc2ccco2)C(=O)/C1=C/c1cccn1CCOc1ccccc1Cl | 20.6 µM [rising, single point] |  |

| Structure (SMILES) | AC50 [1] | AC50 [2] |
| --- | --- | --- |
| COC(=O)C1=C(c2ccc(F)cc2OCc2ccccc2)C[C@@H]2CC[C@H]1N2C | 11.6 µM [falling, single point] |  |
| COC(=O)C1=C(c2cccc3c2S(=O)(=O)c2ccccc2-3)C[C@@H]2CC[C@H]1N2C(=O)N1CCc2cc(OC)c(OC)cc2C1 | 10.3 µM [rising, partial curve] |  |
| COc1cc(OC)cc(C(=O)Nc2ccc(Nc3ccccc3)cc2)c1 | 11.2 µM [falling, partial curve, poor fit] |  |
| Cc1cc(/C=C2\C(=O)NC(=O)N(c3cccc(F)c3)C2=O)c(C)n1-c1cc(C(=O)O)cc(C(=O)O)c1 | 22.4 µM [falling, single point] |  |
| O=Cc1cn(Cc2ccccc2F)c2ccccc12 | 0.562 µM [falling, partial curve, poor fit] |  |
| N#CC1(c2ccccc2)CCN(C2CC(=O)N(c3ccc(F)cc3)C2=O)CC1 (configuration not stated) | 20 µM [rising, partial curve, poor fit] |  |
| Cc1cccc(Cn2cccc(C(=O)Nc3ccc4c(c3)OCCO4)c2=O)c1 | 15.8 µM [falling, single point] | 11.2 µM [rising, partial curve, poor fit] |
| O=C(c1ccc(Cl)cc1)C12CN3CN(CN(C3)C1)C2 | 35.5 µM [rising, single point] |  |
| Cc1ccccc1N1C(=O)NC(=O)/C(=C\c2cc(Br)c(N3CCOCC3)o2)C1=O | 2.31 µM [rising, partial curve, poor fit] |  |
| COC(=O)C1=C(c2ccc(F)cc2OCc2ccccc2)C[C@@H]2CC[C@H]1N2C(=O)NCCOc1ccccc1 | 32.6 µM [falling, single point] |  |
| CC(=O)[C@H]1CC[C@H]2[C@@H]3CC[C@H]4C[C@H](O)CC[C@]4(C)[C@H]3C(=O)C[C@]12C | 18.4 µM [rising, single point] |  |
| O=c1oc(-c2cccc(C(F)(F)F)c2)nn1-c1ccc(C(F)(F)F)cn1 | 2.51 µM [rising, full curve] |  |
| N=c1c2c(n(Cc3ccc(Cl)cc3Cl)c3c1CCC3)CCCC2 | 23.1 µM [falling, single point] |  |
| C=C1C[C@@H]2[C@H](CC[C@]3(C)C(=O)CC[C@@H]23)[C@@]2(C)C=CC(=O)C=C12 | 3.16 µM [rising, single point] |  |
| Oc1cc(O)cc(/C=C/c2ccc(O)cc2O)c1 | 18.4 µM [falling, partial curve, poor fit] |  |
| Cc1cc(C(=O)O)c(C)n1C1CC1 | 0.0891 µM [rising, full curve, poor fit] |  |
| CNCCC(Oc1ccc(C(F)(F)F)cc1)c1ccccc1 (configuration not stated) | 15.8 µM [falling, single point] |  |
| COC(=O)C1=C(c2ccc(OC(F)(F)F)cc2)C[C@@H]2CC[C@H]1N2C(=O)NCCOc1ccccc1Cl | 20.6 µM [falling, single point] |  |
| CCC1C(C#N)=C(N)Oc2c1c(=O)oc1ccccc21 (configuration not stated) | 6.31 µM [rising, single point] |  |
| CCc1ccc(N2C(=O)NC(=O)/C(=C/c3cccn3CCOc3ccc(C(C)CC)cc3)C2=O)cc1 (configuration not stated) | 0.411 µM [rising, full curve, poor fit] | 23.1 µM [rising, partial curve, poor fit] |

| Structure (SMILES) | AC50 [1] | AC50 [2] |
| --- | --- | --- |
| COc1ccc(CCNCc2sccc2C)cc1OC | 20 µM [falling, partial curve, poor fit] |  |
| COP(=O)(c1ccc(N(C)C)cc1)C(O)c1ccccc1 (configuration not stated) | 0.708 µM [rising, full curve, poor fit] |  |
| Cc1ccccc1CC(=O)N(CCN(C)C)CC1CCCN(Cc2ccccc2F)C1 (configuration not stated) | 35.5 µM [falling, single point] |  |
| Nc1ncnc2c1ncn2[C@@H]1O[C@H](COP(=O)(O)OP(=O)(O)OP(=O)(O)O)[C@@H](O)[C@H]1O | 2.59 µM [rising, full curve] |  |
| O=C(NCc1ccccc1)Nc1cccn(Cc2ccccc2Cl)c1=O | 31.6 µM [falling, single point] |  |
| Cc1ccc(N(C)C(=O)Oc2ccc(C(=O)c3ccc(Cl)cc3)cc2)cc1 | 16.4 µM [rising, partial curve] |  |
| O=C1C2CCCN2C(c2cccnc2)N1c1cccc(Cl)c1 (configuration not stated) | 29.1 µM [falling, single point] |  |
| O=C(CCN1CCCCC1)Nc1ccc(Cl)cc1C(=O)c1ccccc1 | 6.31 µM [falling, partial curve, poor fit] |  |
| CN1C(=O)C(Cc2cccc3ccccc23)C(=O)N(C)C1=O | 0.259 µM [falling, full curve, poor fit] |  |
| O=[N+]([O-])c1cc(Cl)c(O)c(-[n+]2c(-c3ccccc3)cc(-c3ccccc3)cc2-c2ccccc2)c1 | 11.2 µM [falling, partial curve] |  |
| CCSc1nnc([C@@H](N)Cc2c[nH]c3ccccc23)o1 | 3.98 µM [rising, single point] |  |
| CCC(C)OC(=O)c1c(N)n(Cc2cccs2)c2nc3ccccc3nc12 (configuration not stated) | 1.3 µM [falling, partial curve, poor fit] | 3.26 µM [rising, partial curve, poor fit] |
| COc1ccc2c(c1)NP(=S)(Oc1ccccc1)N2 (configuration not stated) | 4.47 µM [rising, partial curve, poor fit] |  |
| CCN1CCN(CCCNC(=O)c2ccc3c(Cl)c4c(nc3c2)CCCC4)CC1 | 12.6 µM [falling, single point] |  |
| OC1C2CN3CN(C2)CC1(c1ccccc1)C3 (configuration not stated) | 35.5 µM [rising, single point] |  |
| COC(=O)C1=C(c2ccc(-c3ccccc3)c(F)c2)C[C@@H]2CC[C@H]1N2C(=O)N1CCC(C)CC1 | 3.26 µM [falling, partial curve, poor fit] |  |
| CCOC(=O)C1(CCc2ccccc2)CCN(Cc2cccc3c2OCO3)CC1 | 20 µM [rising, partial curve, poor fit] |  |
| CC12CC[C@H]3[C@@H](CCC4(O)C[C@H](O)CCC34/C=N/NC(=O)c3ccccc3[N+](=O)[O-])C1(O)CCC2C1=CC(=O)OC1 (some centres not stated) | 31.6 µM [rising, single point] |  |
